Data reported in patent US7919481B2, “Inositol pyrophosphates, and methods of use thereof” (NormOxys, Inc., priority 2002, dated 2011).
Some of these results come from one statement about several compounds together. For part of these data: At least one compound was matched to its structure with a doubt left.

Columns and labels:
[1] = 1-octanol/water partition coefficient Kow; type: physicochemical; settings: after equilibration at 30 mM
Experimental: Partition coefficients relate to the distribution of a solute between two immiscible liquid phases and are defined as the ratios of concentrations (or molar fraction) of the distributed solute.
The partition coefficients for our compounds, Kow=[ITPP]1-octanol/[ITPP]water, were measured after equilibration at a concentration of 30 mM, close to the typical concentration employed for biological evaluations.

circulating RBC = assay: P50 shift of circulating RBC after (intraperitoneal) injection in mice; settings: ip, 200 μl, up to 120 mM; maximum

O=P1(O)OC2C3OP(=O)(O)OP(=O)(O)OC3C3OP(=O)(O)OP(=O)(O)OC3C2OP(=O)(O)O1.c1ccncc1.c1ccncc1.c1ccncc1.c1ccncc1.c1ccncc1 (stereo not drawn) [ITPP pyridinium, pentapyridinium Salt of Myo-inositol 1,6:2,3:4,5-Tripyrophosphate]
Kow=[ITPP]1-octanol/[ITPP]water [1]: < 10^−3

O=P1([O-])OP(=O)([O-])O[C@H]2[C@H](O1)[C@@H]1OP(=O)([O-])OP(=O)([O-])O[C@@H]1[C@H]1OP(=O)([O-])OP(=O)([O-])O[C@H]21.[Na+].[Na+].[Na+].[Na+].[Na+].[Na+] [kf111, Hexasodium Salt of Myo-inositol 1,6:2,3:4,5-Tripyrophosphate]
Kow=[ITPP]1-octanol/[ITPP]water [1]: < 10^−3

Hexanoy-IHP NN-DMCHA salt [kf137]
P50-shifts of circulating RBC (circulating RBC): ≤ 20%

IHP monopyrophosphate N,N-Dimethyl cyclohexyl ammonium salt
Kow=[ITPP]1-octanol/[ITPP]water [1]: < 10^−3

IHP monopyrophosphate hexasodium salt [kf133]
P50-shifts of circulating RBC (circulating RBC): ≤ 20%

N,N-Dimethyl cyclohexyl ammonium Salt of Myo-inositol 1,6:2,3:4,5-Tripyrophosphate
Kow=[ITPP]1-octanol/[ITPP]water [1]: < 10^−3
